The record followed here is PMC5818494, “Specific Recognition of Arginine Methylated Histone Tails by JMJD5 and JMJD7” (Scientific Reports, 2018).

Protein sequences, listed by entry. Tags and fused reporters are not part of them.
UniProt P0C872: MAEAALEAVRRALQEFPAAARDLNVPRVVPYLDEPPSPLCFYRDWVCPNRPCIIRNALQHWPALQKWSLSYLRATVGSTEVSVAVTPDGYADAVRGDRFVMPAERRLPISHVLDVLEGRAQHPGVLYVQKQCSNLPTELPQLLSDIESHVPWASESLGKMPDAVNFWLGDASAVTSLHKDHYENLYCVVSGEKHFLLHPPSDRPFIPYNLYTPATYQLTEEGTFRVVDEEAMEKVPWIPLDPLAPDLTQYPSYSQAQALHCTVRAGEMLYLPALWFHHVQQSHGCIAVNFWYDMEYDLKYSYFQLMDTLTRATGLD

For assay [1], the target named is MBP-JMJD7 fusion protein (with a truncated linker) (mouse) (UniProt P0C872). As to the kind of experiment: crystal structure; MBP-JMJD7 (20 mg/ml), vapor diffusion, 100 mM Citrate Sodium, 20% PEG 3350, 4 °C; in the absence of α-KG; two molecules in one asymmetric unit; both purified.
Assay [2] deals with JMJD7 (mouse), JMJD7 protein alone generated from GST-JMJD7 fusion protein (mouse) (UniProt P0C872). The assay is described as follows: crystal structure; mJMJD7 (from GST-mJMJD7, tag removed, 10 mg/ml), vapor diffusion, 0.1 M MES monohydrate pH6.0, 10% PEG4000, 4 °C; in the presence of α-KG; two molecules in one asymmetric unit; both purified.

These are yes or no findings as the source states them, for the method shown. Some entries that bind do so weakly or less than the wild type.

As for “MBP-JMJD7 fusion protein (with a truncated linker) (from UniProt P0C872 1-316) (enzyme)”, the binding result in assay [1] is given as “binds”.
With “JMJD7 (mouse), JMJD7 protein alone generated from GST-JMJD7 fusion protein (from UniProt P0C872 1-316) (enzyme)”, in assay [2], the binding result is “binds”.
